Data as given in PubChem BioAssay AID686938 (Drosophila RNAi Screening Center, 2013).

Screen: 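Fly genes required for calcium entry once internal stores are emptied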 (primary screen)
Cells: Drosophila S2R+ cells
Reagent: long dsRNA against Drosophila genes, about 0.25 µg dsRNA per well, roughly 10,000 cells
Time to read-out: 5 days of knock-down before the calcium assay
Conditions: thapsigargin (SERCA pump blocker) to empty calcium stores; entry signal taken 4 min after adding it
Measurement: 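Per-well fluo-4 fluorescence in two replicates, unnormalised, measured in resting cells and 4 min after store depletion by the SERCA blocker thapsigargin; ratio of the two present in few wells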
Reading the numbers: calcium entry signal: higher = stronger calcium signal after store depletion; resting calcium signal: higher = higher resting calcium signal
Rule for the call: 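Hit if the duplicate-averaged plate z-score for entry over resting signal is under −3; wells with weak total dye signal (Fmax z < −2) or more than 5 off-targets removed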
Calls: active = strongly reduced calcium entry; inactive = no strong reduction
The deposit covers about 23,000 reagents; below is a random part of those that have a named target and a result. In the full data, 75 (0.33%) were called active. 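Raw plate signals without normalisation; calls rest on plate z-scores that were not deposited; ratio present for only 364 wells.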 Reagents against one gene are numbered here. Names joined by + are all predicted targets of the reagent. Not stated in the record: the dose of the treatment.

calcium entry signal, replicate 1 (fluorescence units) | calcium entry signal, replicate 2 (fluorescence units) | resting calcium signal, replicate 1 (fluorescence units) | resting calcium signal, replicate 2 (fluorescence units) | activity call | target | dsRNA no.
2.92e7 | 3.87e7 | 1.83e7 | 2.57e7 | active | RNASEK | 1
4.17e7 | 4.70e7 | 2.16e7 | 2.08e7 | inactive | BckdhB | 1
2.15e7 | 3.45e7 | 1.06e7 | 1.58e7 | inactive | Psf3 | 1
2.27e7 | 3.20e7 | 1.24e7 | 1.41e7 | inactive | Psf3 | 2
3.55e7 | 4.85e7 | 1.76e7 | 2.45e7 | inactive | stx | 1
4.18e7 | 6.11e7 | 1.96e7 | 2.80e7 | inactive | stx | 2
3.34e7 | 2.46e7 | 1.34e7 | 1.07e7 | inactive | stx | 3
4.65e7 | 3.85e7 | 2.64e7 | 2.01e7 | inactive | Nedd8 | 1
3.62e7 | 4.10e7 | 1.82e7 | 1.95e7 | inactive | CG8353 | 1
3.15e7 | 4.32e7 | 1.79e7 | 1.94e7 | inactive | CG34106 | 1
3.83e7 | 2.90e7 | 1.83e7 | 1.36e7 | inactive | Efa6 | 1
3.82e7 | 4.64e7 | 1.88e7 | 2.13e7 | inactive | Efa6 | 2
3.72e7 | 4.74e7 | 1.77e7 | 2.16e7 | inactive | Efa6 | 3
3.11e7 | 4.47e7 | 1.71e7 | 2.27e7 | inactive | Vha16-3 | 1
3.42e7 | 4.12e7 | 1.67e7 | 1.78e7 | inactive | Slh | 1
2.38e7 | 3.02e7 | 1.58e7 | 1.53e7 | inactive | Slh | 2
4.01e7 | 3.94e7 | 1.82e7 | 1.51e7 | inactive | sol | 1
4.87e7 | – | 2.31e7 | – | inactive | fbp | 1
2.07e7 | 2.13e7 | 1.05e7 | 1.06e7 | inactive | Qsox2 | 1
5.07e7 | 5.86e7 | 2.20e7 | 2.66e7 | inactive | ND-51L1 | 1
5.53e7 | 4.82e7 | 2.62e7 | 1.99e7 | inactive | CG11710 | 1
1.91e7 | – | 1.05e7 | – | inactive | l(2)k09022 | 1
3.68e7 | 4.55e7 | 1.81e7 | 1.88e7 | inactive | CG31007 | 1
3.04e7 | 2.91e7 | 1.40e7 | 1.25e7 | inactive | CG4572 | 1
2.44e7 | 3.10e7 | 1.24e7 | 1.55e7 | inactive | Doa | 1
2.80e7 | 3.22e7 | 1.28e7 | 1.78e7 | inactive | Doa | 2
2.68e7 | 3.03e7 | 1.25e7 | 1.63e7 | inactive | Doa | 3
2.40e7 | 3.38e7 | 1.24e7 | 1.74e7 | inactive | Doa | 4
2.36e7 | 4.05e7 | 1.10e7 | 2.07e7 | inactive | Doa | 5
3.44e7 | 3.56e7 | 1.52e7 | 1.60e7 | inactive | Doa | 6
5.00e7 | 4.98e7 | 2.39e7 | 2.20e7 | inactive | Gfat1 | 1
3.16e7 | 2.74e7 | 1.45e7 | 1.30e7 | inactive | Efhc1.2 | 1
3.40e7 | 3.26e7 | 1.47e7 | 1.60e7 | inactive | CG8299 | 1
3.66e7 | 5.92e7 | 1.95e7 | 2.53e7 | inactive | Sara | 1
2.76e7 | 2.48e7 | 1.42e7 | 1.37e7 | inactive | Nuak | 1
3.73e7 | 5.23e7 | 1.65e7 | 2.13e7 | inactive | Nuak | 2
3.00e7 | 3.14e7 | 1.39e7 | 1.51e7 | inactive | Nuak | 3
3.36e7 | 4.92e7 | 1.88e7 | 2.19e7 | inactive | CG13658 | 1
3.50e7 | 5.78e7 | 1.70e7 | 2.78e7 | inactive | CG30109 + CG30108 | 1
2.25e7 | 2.82e7 | 1.30e7 | 1.36e7 | inactive | Pp2B-14D | 1
4.15e7 | 3.23e7 | 2.07e7 | 1.58e7 | inactive | Pp2B-14D | 2
4.45e7 | 6.38e7 | 2.08e7 | 5.09e7 | inactive | Ipp | 1
2.50e7 | 3.44e7 | 1.39e7 | 1.58e7 | inactive | Meics | 1
4.97e7 | 3.07e7 | 2.11e7 | 1.51e7 | inactive | Jhbp14 | 1
4.49e7 | 3.40e7 | 2.61e7 | 1.63e7 | inactive | CG30344 | 1
2.46e7 | 3.03e7 | 1.28e7 | 1.44e7 | inactive | CG10907 | 1
4.17e7 | 3.61e7 | 2.28e7 | 1.73e7 | inactive | lncRNA:CR32160 | 1
4.51e7 | 3.79e7 | 2.22e7 | 1.75e7 | inactive | CG11737 | 1
3.14e7 | 4.20e7 | 1.52e7 | 1.77e7 | inactive | CG5390 | 1
3.64e7 | 2.80e7 | 1.50e7 | 1.29e7 | inactive | Nt5c | 1
3.41e7 | 4.25e7 | 2.10e7 | 2.85e7 | active | bel | 1
3.16e7 | 2.44e7 | 2.11e7 | 1.18e7 | inactive | Tnpo | 1
4.08e7 | – | 2.25e7 | – | inactive | Orc4 | 1
3.72e7 | 3.86e7 | 1.86e7 | 1.85e7 | inactive | CG2004 | 1
2.24e7 | 3.79e7 | 1.14e7 | 1.71e7 | inactive | fbl | 1
4.12e7 | 5.33e7 | 2.22e7 | 2.29e7 | inactive | CG15831 (retired record) | 1
3.03e7 | 4.25e7 | 1.59e7 | 2.31e7 | inactive | CG9130 + CG9133 | 1
2.94e7 | 2.98e7 | 1.39e7 | 1.42e7 | inactive | CG9130 + CG9133 | 2
1.96e7 | 3.54e7 | 1.07e7 | 1.68e7 | inactive | CG9130 + CG9133 | 3
